Patent publication US20180016344A1
Numbering of substitutions follows the chain as printed. These are yes or no findings as the source states them, for the method shown. Some binding calls cover weakened binding; strength is not graded here. Values belong to the binder of their own block, whether it stands above or below them.

Protein sequences, listed by entry. Tags and fused reporters are not part of them. Lines headed by an entry give the natural chain unless they say otherwise; changes in a name come on top.
UniProt O14763: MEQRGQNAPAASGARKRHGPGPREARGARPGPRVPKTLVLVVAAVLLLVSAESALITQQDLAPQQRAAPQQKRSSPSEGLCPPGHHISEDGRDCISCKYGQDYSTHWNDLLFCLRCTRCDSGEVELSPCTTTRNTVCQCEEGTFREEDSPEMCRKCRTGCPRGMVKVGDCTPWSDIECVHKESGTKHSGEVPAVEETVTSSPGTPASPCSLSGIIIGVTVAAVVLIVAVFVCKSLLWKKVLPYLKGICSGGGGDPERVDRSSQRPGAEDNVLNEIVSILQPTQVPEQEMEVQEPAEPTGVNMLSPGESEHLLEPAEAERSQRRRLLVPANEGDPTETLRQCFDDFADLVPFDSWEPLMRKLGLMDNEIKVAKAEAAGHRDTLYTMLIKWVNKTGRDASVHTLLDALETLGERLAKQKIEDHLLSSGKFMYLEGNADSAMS

Legend:
[1] = molecular target: soluble human DR5 (tagged with histidine) (human) (UniProt O14763); experiment: legend of FIG. 11
[2] = molecular target: soluble human DR5 (tagged with histidine) (human) (UniProt O14763); experiment: sandwich assay: soluble His-tagged human DR5 coat, diabody, then biotin-conjugated CD3
[3] = molecular target: soluble human DR5 (tagged with histidine) (human) (UniProt O14763); experiment: sandwich binding assay: shDR5-His (0.5 µg/mL) coated, diabody titrated (nM), CD3-biotin detected, read as RLU
human DR5 (human) [4] = molecular target: human DR5 (human) (UniProt O14763); experiment: antibody titration read as MFI (log axis) against concentration in nM; the text does not describe the assay format or how DR5 was presented (Example 2)
human DR5 (human) [5] = molecular target: human DR5 (human) (UniProt O14763); experiment: legend of FIG. 5

B1: hDR5 mAb 2 (2.3)×CD3 mAb 2 (bispecific antibody)
chain 1: DIQMTQSPSFLSASVGDRVTITCRASQDVNTAVAWYQQKPGKAPKLLIYWASTRHTGVPDRFSGSGSGTDFTLTISSLQPEDVATYYCQQHYITPWTFGGGTKLEIKGGGSGGGGEVQLVESGGGLVQPGGSLRLSCAASGFTFSTYAMNWVRQAPGKGLEWVGRIRSKYNNYATYYADSVKGRFTISRDDSKNSLYLQMNSLKTEDTAVYYCVRHGNFGNSYVSWFAYWGQGTLVTVSSASTKGEVAACEKEVAALEKEVAALEKEVAALEK
chain 2: QAVVTQEPSLTVSPGGTVTLTCRSSTGAVTTSNYANWVQQKPGQAPRGLIGGTNKRAPWTPARFSGSLLGGKAALTITGAQAEDEADYYCALWYSNLWVFGGGTKLTVLGGGGSGGGGQVQLVQSGAEVKKPGASVKVSCKASGYTFTEYILHWVRQAPGQGLEWMGWFYPGNNNIKYNEKFKDRVTITADKSTSTVYMELSSLRSEDTAVYYCARHEQGPGYFDYWGQGTLVTVSSASTKGKVAACKEKVAALKEKVAALKEKVAALKE
binding [1]: binds
binding [2]: binds
binding [3]: binds

B2: hDR5 mAb 2 (2.2)×CD3 mAb 2 (bispecific antibody)
chain 1: B1 chain 1 with R24K, D60S
chain 2: B1 chain 2
binding [1]: binds
binding [2]: binds
binding [3]: binds

B3: hDR5 mAb 2 (2.5)×CD3 mAb 2 (bispecific antibody)
chain 1: B1 chain 1 with V83I
chain 2: B1 chain 2
binding [1]: binds
binding [2]: binds
binding [3]: binds

B6: DR5 mAb 1 (antibody, V domains shown)
VH: EVKFLESGGGLVQPGGSLKLSCVASGFDFSRYWMSWVRQAPGKGLEWIGEINPDSNTINYTPSLKDKFIISRDNAKNTLYLQMTKVRSEDTALYYCTRRAYYGNPAWFAYWGQGTLVTVSS
VL: DIVLTQSPASLAVSLGQRATISCRASKSVSSSGYSYMHWYQQKPGQPPKVLIFLSSNLDSGVPARFSGSGSGTDFTLNIHPVEDGDAATYYCQHSRDLPPTFGGGTKLEIK
binding (human DR5 (human) [4]): binds
binding (human DR5 (human) [5]): binds

The next lines start with the values.

binding [1]: binds
binding [2]: binds
binding [3]: binds
B4: hDR5 mAb 2 (2.4)×CD3 mAb 2 (bispecific antibody)
chain 1: B1 chain 1 with D60S, V83I
chain 2: B1 chain 2

binding (human DR5 (human) [4]): binds
binding (human DR5 (human) [5]): binds
B5: DR5 mAb 2 (antibody, V domains shown)
VH: KVQLQQSGAELVKPGASVKLSCKASGYTFTEYILHWVKQKSGQGLEWIGWFYPGNNNIKYNEKFKDKATLTADKSSSTVYMELSRLTSEDSAVYFCARHEQGPGYFDYWGQGTTLTVSS
VL: DIVMTQSHKFMSTSVGDRVSITCKASQDVNTAVAWYQQKPGQSPKLLIYWASTRHTGVPDRFTGSGSGTDYTLTIKSVQAEDLTLYYCQQHYITPWTFGGGTKLEIK
